Experimental data: patent US9784732B2, “Acidic environment-detecting fluorescent probe” (THE UNIVERSITY OF TOKYO, priority 2011, dated 2017)
At least one compound was matched to its structure with a doubt left.

Assay: pH profile of fluorescent intensity (pKa) in phosphate buffer
Type: physicochemical
Conditions: basic or neutral to acidic
Method: In order to measure absorption and fluorescence spectra, a dye compound was dissolved in dimethyl sulfoxide (DMSO, fluorescent analysis-grade, Dojindo) to obtain 1 mM of standard solution. Using a UV-1650 PCUV/V spectrometer (Shimadzu) and an FP-6600 fluorescence spectrometer (JASCO), the optical properties of the dye compound in 200 mM of a sodium phosphate buffer solution containing 0.03% (v/v) DMSO as a cosolvent were measured. In order to determine fluorescence quantum yield (Φf1), the value (Φf1=0.65) of Rhodamine B in ethanol was used as a standard. The value was calculated according to the following formula. Φx/Φst=[Ast/Ax][nx^2/nst^2][Dx/Dst]
The absorption spectrum and fluorescence emission spectrum when solution pH was altered from 2.0 to 10.0 for Compound A obtained in Example 1 were obtained according to the measurement method described above.
Using a 100 mM phosphate buffer solution of Compound 1 (500 nM) obtained in Example 2, pH was altered from 4.39 to 9.24, and the fluorescence spectrum was measured.
A fitted curve for the pH profile was obtained according to the following formula.
Next, in order to investigate the reversibility of pH changes in Dye Conjugate 1, the fluorescent intensity ratio (fluorescent intensity at 540 nm/fluorescent intensity at 488 nm) was calculated for a case in which pH was cycled between 7.1 and 3.2 every 30 seconds.

## CN1CCN(c2ccc3c(-c4ccc(C(=O)O)cc4)c4ccc(=[N+]5CCN(C)CC5)cc-4oc3c2)CC1 [Compound 1, 1-(9-(4-carboxyphenyl)-6-(4-methylpiperazine-1-yl)-3H-xanthene-3-ylidene)-4-methylpiperazine-1-ium]
  Fluorescence response to pH change: exhibits fluorescence-increasing properties
